Here are results for 4 molecules from paper PMC4458842.

Sequences of proteins named here, by UniProt entry; tags and fusion partners are left off.
UniProt Q38919: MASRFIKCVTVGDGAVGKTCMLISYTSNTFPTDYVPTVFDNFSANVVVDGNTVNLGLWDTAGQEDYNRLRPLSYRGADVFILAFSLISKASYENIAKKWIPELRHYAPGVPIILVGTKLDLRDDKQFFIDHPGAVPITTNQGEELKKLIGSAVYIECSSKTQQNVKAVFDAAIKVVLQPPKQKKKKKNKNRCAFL

The target in one experiment is MBP-ROP2 (Arabidopsis) (UniProt Q38919). As to the kind of experiment: pull-down; MBP-ROP2 bait on resin; extracts of protoplasts expressing HA-LLG1 or HA-LRE; with guanine nucleotide (GDP or GTP); procedure of Duan et al., 2010; only the target purified.
The next experiment addresses T1, MBP-exJM (Arabidopsis) (UniProt Q9SCZ4).
T1 sequence: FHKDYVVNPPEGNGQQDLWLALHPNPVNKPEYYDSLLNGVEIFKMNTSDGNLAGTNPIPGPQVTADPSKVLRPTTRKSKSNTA
As to the kind of experiment: pull-down; MBP-exJM bait on resin; E. coli-produced His6-LLG1 applied; 4°C, 2 hr.

Experiment [1] concerns the target T2, LLG1 (amino acids 24–149) (yeast two-hybrid fusion) (Arabidopsis) (UniProt Q9FKT1).
T2 sequence: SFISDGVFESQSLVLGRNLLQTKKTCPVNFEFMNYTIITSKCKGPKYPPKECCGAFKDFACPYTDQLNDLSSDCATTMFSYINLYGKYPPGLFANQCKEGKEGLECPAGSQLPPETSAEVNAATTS
The experiment can be described thus: two-hybrid; yeast two-hybrid, Stratagene vectors; 3AT selection and β-galactosidase assays.

Experiment [2] deals with T3, LRE (amino acids 21–138) (yeast two-hybrid fusion) (Arabidopsis) (UniProt B3GS44).
T3 sequence: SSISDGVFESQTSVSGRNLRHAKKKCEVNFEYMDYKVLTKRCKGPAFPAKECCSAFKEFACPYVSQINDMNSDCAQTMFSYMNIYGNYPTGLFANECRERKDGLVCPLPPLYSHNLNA
The description is as above.

Results are given in words; binding and its absence hold for the method and conditions named. For some assays here: In cells and extracts the contact can be indirect. Some binding calls cover weakened binding; strength is not graded here. Tags and fused reporters may be left off the sequences shown.

B1: HA-LLG1 (protein, UniProt Q9FKT1 24-144)
chain: SFISDGVFESQSLVLGRNLLQTKKTCPVNFEFMNYTIITSKCKGPKYPPKECCGAFKDFACPYTDQLNDLSSDCATTMFSYINLYGKYPPGLFANQCKEGKEGLECPAGSQLPPETSAEVN
On to B1, for which the binding entry in the experiment with MBP-ROP2 (Arabidopsis) is on record as “binds”.

B2: His6-LLG1 (protein, UniProt Q9FKT1 24-144)
chain: B1 chain
For B2, in the experiment with MBP-exJM (Arabidopsis), the binding entry is given as “binds”.

B3: exJM (yeast two-hybrid fusion) (domain or fragment, UniProt Q9SCZ4 365-447)
chain: T1 sequence
Take B3: the binding result in experiment [1] and in experiment [2] was “binds” throughout.

B4: HA-LRE (protein, UniProt B3GS44 21-139)
chain: SSISDGVFESQTSVSGRNLRHAKKKCEVNFEYMDYKVLTKRCKGPAFPAKECCSAFKEFACPYVSQINDMNSDCAQTMFSYMNIYGNYPTGLFANECRERKDGLVCPLPPLYSHNLNAS
On to B4, for which, in the experiment with MBP-ROP2 (Arabidopsis), the binding entry is “binds”.
